Measurements: PubChem BioAssay AID540303 (National Center for Advancing Translational Sciences (NCATS), 2011)
Hit rate of the full screen: of about 330,000 compounds, about 1,000 (0.3%) were called active. This list was built around the results that the source calls inconclusive (neither active nor inactive); the mix of calls is not that of the screen. Calls come from the whole dose curve; as a rule, active = well fitted inhibition curve with a large enough effect; inconclusive = small, poorly fitted or top-dose-only effect; inactive = no such curve, though single readings can be large or run the other way; tested in mouse RAW 264.7 cells. A potency beside an inconclusive call is a rough fit, not a confirmed value.
Potency is the fitted concentration of half-maximal effect.

Test: qHTS for Inhibitors of Cell Surface uPA Generation; note: nearly all actives have a fitted effect of over 55% in size
Settings: cell surface uPA generation assay; series mostly up to 38.3 µM
In short: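 RAW 264.7 cells, 4000/well, given compound (1:5 dilutions, up to 38.3 uM final) and incubated 24 h at 37 C. Blocked uPA-dependent LF entry keeps ATP high; ATPlite luminescence read, 5 s exposure.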
In the case of `COc1cccc(/C=N/NC(=O)c2cc3c(OC)c(OC)ccc3[nH]2)c1OC`, the Potency is reported as inconclusive: 2.51 µM [inhibitor, full curve, poor fit]. For `COc1cccc(Nc2ccccc2C(=O)O)c1`, the Potency was “inactive”. For `Cc1ccc(C)c(C(=O)NCCN(C)C)c1`, the Potency was “inactive”. For `Cc1ccc(-n2cc(CN3CCN(c4ccccn4)CC3)c(-c3ccc(F)cc3)n2)cc1`, the Potency was “inactive”. In the case of `COc1ccc(C(=O)N2[C@@H](C(C)C)COc3cc(Br)ccc3S2(=O)=O)cc1`, the Potency is reported as inconclusive: 11.2 µM [inhibitor, partial curve, poor fit]. With `O=C(NCc1cccc(F)c1)c1noc2c1CCCC2` the Potency was inconclusive: 12.6 µM [inhibitor, single point]. In the case of `COC(=O)C(Cc1cccc(C)n1)(c1ccccc1)c1ccccc1`, the Potency is reported as “inactive”. For `Cc1cc(C)c(C#N)c(SCC(=O)Nc2nonc2N)n1`, the Potency was “inactive”. In the case of `CSCCC(=O)N1CCCC(CNC(=O)c2ccc(-c3ccccc3)cc2)C1` (centres undefined), the Potency is reported as inconclusive: 4.47 µM [inhibitor, partial curve, poor fit]. With `CCc1ccc(OCC(=O)NNC(=O)c2cnccn2)c(Br)c1` the Potency was inconclusive: 7.08 µM [inhibitor, single point]. In the case of `COC(=O)c1ccc(C(=O)N(CCN(C)C)c2nc3c(Cl)cccc3s2)cc1`, the Potency is reported as inconclusive: 11.2 µM [inhibitor, single point]. In the case of `CC(=O)Oc1ccc(C(=O)Nc2ccccc2C(=O)N2CCCCC2)cc1`, the Potency is reported as “inactive”. With `O=C(NCc1ccccc1Cl)c1ccccc1CCc1ccccc1` the Potency was inconclusive: 5.62 µM [inhibitor, partial curve, poor fit]. With `CCCCn1nc2cc(C(=O)NCC34CC5CC(CC(C5)C3)C4)ccc2c1OC` the Potency was inconclusive: 3.55 µM [inhibitor, partial curve, poor fit]. With `COc1cccc(C(=O)Nc2cccc(NC(=O)c3ccccc3Cl)c2)c1` the Potency was inconclusive: 0.794 µM [inhibitor, full curve, poor fit]. With `CC(Nc1ncnc2ccccc12)c1ccccc1` (centres undefined) the Potency was “inactive”. In the case of `Cc1noc(C)c1C(=O)NCC1COc2ccccc2O1` (centres undefined), the Potency is reported as inconclusive: 3.98 µM [inhibitor, partial curve]. With `O=C1NC[C@@H](c2ccccc2)OC(=O)[C@H](Cc2ccc(F)cc2)C/C=C\C[C@@H]1CC(=O)N(CCO)Cc1ccccc1` the Potency was inconclusive: 12.6 µM [inhibitor, single point]. In the case of `CCCNC(=O)c1ccc2c(=O)c(O)c(-c3ccc(Cl)c([N+](=O)[O-])c3)[nH]c2c1`, the Potency is reported as inconclusive: 10 µM [inhibitor, single point]. In the case of `N#Cc1c(-c2ccccc2)cc(-c2ccccc2)nc1SCC(=O)O`, the Potency is reported as inconclusive: 10 µM [inhibitor, single point]. For `COc1ccc(-n2c(C)cc(C(=O)CCl)c2C)cc1`, the Potency was inconclusive: 7.08 µM [inhibitor, partial curve, poor fit]. For `Cc1ccc2oc(/N=C(\N)NC(=O)C3CC3)nc2c1`, the Potency was inconclusive: 2.82 µM [inhibitor, full curve, poor fit]. With `COc1ccc(CN2CC(COCc3ccccc3)Oc3ccccc3S2(=O)=O)cc1` (centres undefined) the Potency was “inactive”. With `Cc1ccc(S(=O)(=O)NC(=O)c2ccccc2C)cc1` the Potency was “inactive”. For `CCc1ccc(CCC(=O)Nc2ccc(Br)cc2)o1`, the Potency was inconclusive: 10 µM [inhibitor, partial curve]. In the case of `CC(=O)N1c2ccc(S(=O)(=O)N3CCCC3)cc2CC1C(=O)Nc1cc(C)cc(C)c1` (centres undefined), the Potency is reported as “inactive”. For `COc1ccc(-c2cc(C(=O)N3CCN(c4ncccn4)CC3)c3ccccc3n2)cc1`, the Potency was inconclusive: 14.1 µM [inhibitor, partial curve, poor fit]. With `Nc1ccccc1N=Nc1ccccc1N` the Potency was inconclusive: 8.91 µM [inhibitor, single point]. For `CC1CCCCN1C(=O)c1cccc(NC2=C(Cl)C(=O)N(Cc3ccccc3)C2=O)c1` (centres undefined), the Potency was inconclusive: 11.2 µM [inhibitor, partial curve, poor fit]. In the case of `CCC(C)NC(=O)c1ccc2c(Cl)c3c(nc2c1)CCC3` (centres undefined), the Potency is reported as inconclusive: 10 µM [inhibitor, single point]. With `CC1(C)OC(=O)C=C(CC2NS(=O)(=O)OC3CCCCC23)O1` (centres undefined) the Potency was “inactive”. For `CCCCn1c(N)c(N(CC(C)C)C(=O)c2ccc(-c3ccc(C(C)=O)cc3)o2)c(=O)[nH]c1=O`, the Potency was “inactive”. With `CCn1c(NC(=O)c2cccc(Cn3cc(Cl)cn3)c2)nc2ccccc21` the Potency was inconclusive: 14.1 µM [inhibitor, single point]. For `Cc1ccc(NC(=O)Nc2ccc3c(c2)OCO3)nc1`, the Potency was inconclusive: 10 µM [inhibitor, partial curve, poor fit]. In the case of `CCOc1ccc(C(=O)CCC(=O)N2CCN(c3ccc(O)cc3)CC2)cc1`, the Potency is reported as inconclusive: 7.08 µM [inhibitor, full curve, poor fit]. For `N#CC1=C(N)Oc2c(ccc3cccnc23)C1c1cccnc1` (centres undefined), the Potency was “inactive”. In the case of `Cc1nnc2sc(SCc3ccc(Cl)cc3)nn2c1=O`, the Potency is reported as “inactive”. In the case of `O=C(COC(=O)c1cccc(O)c1)c1ccccc1`, the Potency is reported as inconclusive: 8.91 µM [inhibitor, partial curve, poor fit]. In the case of `CC(OC(=O)c1cccc(-n2cnnn2)c1)C(=O)Nc1cccc(Cl)c1` (centres undefined), the Potency is reported as inconclusive: 3.55 µM [inhibitor, full curve, poor fit]. With `CCCSc1ccc([C@H]2N[C@@](Cc3ccccc3)(C(=O)OC)[C@H]3C(=O)N(C)C(=O)[C@@H]23)cc1` the Potency was inconclusive: 0.794 µM [inhibitor, partial curve, poor fit]. With `C=CCn1c(-c2ccc3ncccc3c2)n[nH]c1=S` the Potency was “inactive”. In the case of `O=C(CCCCCCC(=O)Nc1ccccc1)NO`, the Potency is reported as inconclusive: 0.0631 µM [inhibitor, full curve, poor fit]. For `COc1ccc(CCn2c(C)cc(C(=O)CN3C(=O)C(=O)N(Cc4ccco4)C3=O)c2C)cc1`, the Potency was inconclusive: 28.2 µM [inhibitor, single point]. In the case of `O=C(NNC(=S)NC(=O)c1cn(-c2ccccc2)nc1-c1ccccc1)c1ccncc1`, the Potency is reported as inconclusive: 7.94 µM [inhibitor, partial curve, poor fit].
